{"source": "patent US10525105B2", "about": "(Guangzhou Link Health Pharma Co., Ltd., priority 2016, dated 2020)", "assay": "peptide made by a vendor", "details": "whole synthesis, HPLC", "note": "HELM strings list residues between dots; [ac] is acetyl, [am] amide, other brackets name non-standard units.", "data": [{"substance": "HELM PEPTIDE1{[dQ].L.K.H.R.N.[N=C(N)NCCCC[C@H](N[*:1])C(=O)[*:2]].H.R.I.K.T.G.S.T.N.H.G.L.V.Q.S.L.[am]}$$$$V2.0 (N-terminus assumed; SMILES CC[C@H](C)[C@H](NC(=O)[C@H](CCCNC(=N)N)NC(=O)[C@H](Cc1c[nH]cn1)NC(=O)[C@H](CCCCNC(=N)N)NC(=O)[C@H](CC(N)=O)NC(=O)[C@H](CCCNC(=N)N)NC(=O)[C@H](Cc1c[nH]cn1)NC(=O)[C@H](CCCCN)NC(=O)[C@H](CC(C)C)NC(=O)[C@H](N)CCC(N)=O)C(=O)N[C@@H](CCCCN)C(=O)N[C@H](C(=O)NCC(=O)N[C@@H](CO)C(=O)N[C@H](C(=O)N[C@@H](CC(N)=O)C(=O)N[C@@H](Cc1c[nH]cn1)C(=O)NCC(=O)N[C@@H](CC(C)C)C(=O)N[C@H](C(=O)N[C@@H](CCC(N)=O)C(=O)N[C@@H](CO)C(=O)N[C@@H](CC(C)C)C(N)=O)C(C)C)[C@@H](C)O)[C@@H](C)O)", "values": [{"measurement": "purity (crude or final not stated)", "value": "larger than 98%"}]}]}
